Test results from PubChem BioAssay AID304 (DTP/NCI, 2004).
The list is a part of this screen's results and no random one: it covers a few groups of compounds. Other doses and runs of a compound may be missing. T/C: endpoint of the treated group in % of that of the vehicle group. Some doses have a count of surviving animals in place of a T/C: the source files T/C as zero there, which appears to mark a toxic dose or a test without result, not a measured value. Some doses without a T/C left all or most animals alive at the check, yet need not have been tolerated: survival well below the control is almost never listed, so the zero probably covers shortened survival too. Counts of survivors are from the toxicity check (mostly the fifth day) where no day follows; animals may have died later. Schedule codes are those of the source, taken here to give the interval after Q, in days (D) or hours (H), and the number of doses after X. Some entries were tested several times; the values are given in rising order. Where survival is the endpoint, the PubChem record calls one and a half times the control and up active, and a quarter to a half above the control has no call in these data; cut-offs in other NCI protocols can differ.

Tested on: Lymphosarcoma Mecca ip in C3AKF1 mice, survival T/C%
Test: NCI In Vivo Anticancer Drug Screen. Data for tumor model Lymphosarcoma Mecca (intraperitoneal) in C3AKF1 (CHKRF1) mice
Conditions: T/C endpoint: survival time, mean or median, schedule: Q01DX010 (ip), vehicle: saline, higher T/C = longer survival
Description: The antitumor activity of compounds was measured in mice bearing transplantable tumors. Survival or tumor size were measured and the results are expressed as the measurement made in the treated group (T) divided by the measurement made in the vehicle treated control group (C). The tumor model used in this assay is Lymphosarcoma Mecca (intraperitoneal) in C3AKF1 (CHKRF1) mice

| SMILES | T/C (dose: 0.25 mg/kg/injection) | T/C (dose: 0.5 mg/kg/injection) | T/C (dose: 1.0 mg/kg/injection) | T/C (dose: 2.0 mg/kg/injection) | T/C (dose: 8.0 mg/kg/injection) | T/C (dose: 16.0 mg/kg/injection) | T/C (dose: 32.0 mg/kg/injection) | survivor count (dose: 32.0 mg/kg/injection) | survivor count (dose: 64.0 mg/kg/injection) |
| --- | --- | --- | --- | --- | --- | --- | --- | --- | --- |
| Cc1[nH]c(=O)[nH]c(=O)c1N(CCCl)CCCl | 115 % of control | 120 % of control | 140 % of control | 220 % of control | – | – | – | – | – |
| CN(N=O)C(=N)N[N+](=O)[O-] | – | – | – | – | 130 and 177 % of control | 118 and 160 % of control | 90 % of control | 6 of 6 | 5 of 6 and 6 of 6 |
